What was measured:
[1] = tested on: SKOV-3 (human ovarian carcinoma); assay: MTT assay, SKOV-3; type: cell-based; details: IC50 HDF / IC50 SKOV-3
Method: (§1) All the cell lines and mediums were obtained from the American Type Culture Collection (ATCC) supplied by LGC-Standards (Lomianki, Poland). Human cancer cell lines were cultured as follows: HeLa (human cervix carcinoma) and KB (human oral squamous carcinoma) lines were cultured in DMEM (Dulbecco’s Modified Eagle’s Medium); MCF-7 (human breast carcinoma) and A-549 (human lung carcinoma) were cultured in RPMI 1640 medium; PC-3 (human prostate carcinoma) was cultured in F-12K medium; SKOV-3 (human ovarian cystadenocarcinoma) was cultured in McCoy’s modified medium; HDF (human normal dermal fibroblasts) was cultured in Fibroblast Basal Medium. Each medium was supplemented with 10% fetal bovine serum, 1% L- glutamine and 1% penicillin/streptomycin solution. The cell lines were kept in an incubator at 37 °C.
(§2) All the tested cell lines (HeLa, KB, MCF-7, A-549, PC-3, SKOV-3 and HDF) were subjected to MTT assay. In short, this assay is based on the reaction between mitochondria enzymes (dehydrogenases) of tested cell lines and 3-(4,5-dimethylthiazol-2-yl)-2,5-diphenyltetrazolium bromide (MTT). The final product of this reaction gives violet formazan crystals. The number of live cells is proportional to the amount of formazan and is represented by the violet dye reagent. The details of the experiments are given in [19].

[2] = tested on: PC-3 (human prostate carcinoma); assay: MTT assay, PC-3; type: cell-based; details: IC50 HDF / IC50 PC-3
Method: as §1, §2

SMILES | Selectivity index (SI), SKOV-3 [1] | Selectivity index (SI), PC-3 [2]
CC(=O)OC1CCC2(C)C(CCC3(C)C2CCC2C4C5OCC4(CCC5(C)C)CCC23C)C1(C)C (stereo not shown) [3b, 3-O-Acetylallobetulin] | 1.17 | 1.19
C=C(C)[C@@H]1CC[C@]2(C)CC[C@]3(C)[C@H](CC[C@@H]4[C@@]5(C)CC[C@H](OC(C)=O)C(C)(C)[C@@H]5CC[C@]43C)[C@@H]12 [6b, 3-O-Acetylolupeol] | 1.66 | 1.58

— PMC12196235, “Enhancing the Pharmacological Properties of Triterpenes Through Acetylation: An Anticancer and Antioxidant Perspective” (Molecules, 2025)
